Assay results: the supplement of paper PMC10849652
This is one part of the list.

Protein sequences, listed by entry. Tags and fused reporters are not part of them. Lines headed by an entry give the natural chain unless they say otherwise; changes in a name come on top.
UniProt O75808: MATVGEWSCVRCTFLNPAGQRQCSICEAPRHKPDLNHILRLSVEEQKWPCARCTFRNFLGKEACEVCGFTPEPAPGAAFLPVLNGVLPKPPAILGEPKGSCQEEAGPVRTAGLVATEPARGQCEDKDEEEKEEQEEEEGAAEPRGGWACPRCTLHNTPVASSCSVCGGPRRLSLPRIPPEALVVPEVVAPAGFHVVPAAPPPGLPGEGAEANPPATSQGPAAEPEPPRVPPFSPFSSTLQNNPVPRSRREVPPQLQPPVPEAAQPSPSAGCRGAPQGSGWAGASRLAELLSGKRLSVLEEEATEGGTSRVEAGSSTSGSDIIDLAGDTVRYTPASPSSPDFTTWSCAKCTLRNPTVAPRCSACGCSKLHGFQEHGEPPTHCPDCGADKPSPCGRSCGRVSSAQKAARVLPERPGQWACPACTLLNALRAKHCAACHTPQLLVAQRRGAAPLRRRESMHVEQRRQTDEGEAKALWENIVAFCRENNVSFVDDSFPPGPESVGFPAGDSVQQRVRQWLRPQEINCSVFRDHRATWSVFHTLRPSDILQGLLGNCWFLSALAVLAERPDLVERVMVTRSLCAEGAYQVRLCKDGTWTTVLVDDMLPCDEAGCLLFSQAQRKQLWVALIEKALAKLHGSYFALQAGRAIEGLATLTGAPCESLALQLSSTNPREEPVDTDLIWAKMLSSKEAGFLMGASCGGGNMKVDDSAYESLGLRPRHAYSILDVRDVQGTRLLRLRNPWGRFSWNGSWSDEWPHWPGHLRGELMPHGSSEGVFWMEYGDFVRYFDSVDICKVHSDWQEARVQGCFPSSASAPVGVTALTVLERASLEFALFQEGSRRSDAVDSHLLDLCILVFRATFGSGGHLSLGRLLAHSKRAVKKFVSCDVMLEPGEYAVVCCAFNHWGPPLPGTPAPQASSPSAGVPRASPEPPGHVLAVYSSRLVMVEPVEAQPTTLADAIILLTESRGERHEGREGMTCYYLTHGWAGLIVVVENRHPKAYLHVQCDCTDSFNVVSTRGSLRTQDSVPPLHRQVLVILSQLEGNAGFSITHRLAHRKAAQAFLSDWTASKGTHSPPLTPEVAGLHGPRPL
UniProt P43251: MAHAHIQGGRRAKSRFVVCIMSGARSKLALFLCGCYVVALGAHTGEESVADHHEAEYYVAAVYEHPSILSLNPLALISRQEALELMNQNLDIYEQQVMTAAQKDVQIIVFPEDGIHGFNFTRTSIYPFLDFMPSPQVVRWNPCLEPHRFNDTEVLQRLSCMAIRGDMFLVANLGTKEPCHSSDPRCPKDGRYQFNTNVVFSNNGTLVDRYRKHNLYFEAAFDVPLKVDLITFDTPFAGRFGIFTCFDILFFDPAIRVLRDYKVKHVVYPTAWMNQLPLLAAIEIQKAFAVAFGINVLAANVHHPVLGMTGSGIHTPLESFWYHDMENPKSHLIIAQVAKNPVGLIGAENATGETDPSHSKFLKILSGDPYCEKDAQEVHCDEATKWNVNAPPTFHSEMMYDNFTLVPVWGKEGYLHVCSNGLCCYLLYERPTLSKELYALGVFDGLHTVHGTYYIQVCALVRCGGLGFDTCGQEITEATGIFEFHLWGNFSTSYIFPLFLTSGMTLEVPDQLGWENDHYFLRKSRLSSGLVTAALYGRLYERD
UniProt Q5SQH8: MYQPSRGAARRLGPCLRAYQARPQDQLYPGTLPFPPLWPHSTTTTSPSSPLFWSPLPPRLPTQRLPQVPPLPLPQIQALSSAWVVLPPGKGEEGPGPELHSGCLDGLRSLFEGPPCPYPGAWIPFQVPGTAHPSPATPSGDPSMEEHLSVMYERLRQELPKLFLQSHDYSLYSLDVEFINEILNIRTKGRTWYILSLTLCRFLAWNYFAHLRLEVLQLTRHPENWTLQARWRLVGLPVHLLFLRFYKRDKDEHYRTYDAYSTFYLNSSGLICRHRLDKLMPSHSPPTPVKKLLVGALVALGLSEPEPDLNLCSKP
UniProt Q3KRA6: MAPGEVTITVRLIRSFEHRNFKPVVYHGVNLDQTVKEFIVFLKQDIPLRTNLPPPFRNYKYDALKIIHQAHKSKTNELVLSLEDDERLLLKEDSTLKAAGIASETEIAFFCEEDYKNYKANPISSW
UniProt Q9Y6J0: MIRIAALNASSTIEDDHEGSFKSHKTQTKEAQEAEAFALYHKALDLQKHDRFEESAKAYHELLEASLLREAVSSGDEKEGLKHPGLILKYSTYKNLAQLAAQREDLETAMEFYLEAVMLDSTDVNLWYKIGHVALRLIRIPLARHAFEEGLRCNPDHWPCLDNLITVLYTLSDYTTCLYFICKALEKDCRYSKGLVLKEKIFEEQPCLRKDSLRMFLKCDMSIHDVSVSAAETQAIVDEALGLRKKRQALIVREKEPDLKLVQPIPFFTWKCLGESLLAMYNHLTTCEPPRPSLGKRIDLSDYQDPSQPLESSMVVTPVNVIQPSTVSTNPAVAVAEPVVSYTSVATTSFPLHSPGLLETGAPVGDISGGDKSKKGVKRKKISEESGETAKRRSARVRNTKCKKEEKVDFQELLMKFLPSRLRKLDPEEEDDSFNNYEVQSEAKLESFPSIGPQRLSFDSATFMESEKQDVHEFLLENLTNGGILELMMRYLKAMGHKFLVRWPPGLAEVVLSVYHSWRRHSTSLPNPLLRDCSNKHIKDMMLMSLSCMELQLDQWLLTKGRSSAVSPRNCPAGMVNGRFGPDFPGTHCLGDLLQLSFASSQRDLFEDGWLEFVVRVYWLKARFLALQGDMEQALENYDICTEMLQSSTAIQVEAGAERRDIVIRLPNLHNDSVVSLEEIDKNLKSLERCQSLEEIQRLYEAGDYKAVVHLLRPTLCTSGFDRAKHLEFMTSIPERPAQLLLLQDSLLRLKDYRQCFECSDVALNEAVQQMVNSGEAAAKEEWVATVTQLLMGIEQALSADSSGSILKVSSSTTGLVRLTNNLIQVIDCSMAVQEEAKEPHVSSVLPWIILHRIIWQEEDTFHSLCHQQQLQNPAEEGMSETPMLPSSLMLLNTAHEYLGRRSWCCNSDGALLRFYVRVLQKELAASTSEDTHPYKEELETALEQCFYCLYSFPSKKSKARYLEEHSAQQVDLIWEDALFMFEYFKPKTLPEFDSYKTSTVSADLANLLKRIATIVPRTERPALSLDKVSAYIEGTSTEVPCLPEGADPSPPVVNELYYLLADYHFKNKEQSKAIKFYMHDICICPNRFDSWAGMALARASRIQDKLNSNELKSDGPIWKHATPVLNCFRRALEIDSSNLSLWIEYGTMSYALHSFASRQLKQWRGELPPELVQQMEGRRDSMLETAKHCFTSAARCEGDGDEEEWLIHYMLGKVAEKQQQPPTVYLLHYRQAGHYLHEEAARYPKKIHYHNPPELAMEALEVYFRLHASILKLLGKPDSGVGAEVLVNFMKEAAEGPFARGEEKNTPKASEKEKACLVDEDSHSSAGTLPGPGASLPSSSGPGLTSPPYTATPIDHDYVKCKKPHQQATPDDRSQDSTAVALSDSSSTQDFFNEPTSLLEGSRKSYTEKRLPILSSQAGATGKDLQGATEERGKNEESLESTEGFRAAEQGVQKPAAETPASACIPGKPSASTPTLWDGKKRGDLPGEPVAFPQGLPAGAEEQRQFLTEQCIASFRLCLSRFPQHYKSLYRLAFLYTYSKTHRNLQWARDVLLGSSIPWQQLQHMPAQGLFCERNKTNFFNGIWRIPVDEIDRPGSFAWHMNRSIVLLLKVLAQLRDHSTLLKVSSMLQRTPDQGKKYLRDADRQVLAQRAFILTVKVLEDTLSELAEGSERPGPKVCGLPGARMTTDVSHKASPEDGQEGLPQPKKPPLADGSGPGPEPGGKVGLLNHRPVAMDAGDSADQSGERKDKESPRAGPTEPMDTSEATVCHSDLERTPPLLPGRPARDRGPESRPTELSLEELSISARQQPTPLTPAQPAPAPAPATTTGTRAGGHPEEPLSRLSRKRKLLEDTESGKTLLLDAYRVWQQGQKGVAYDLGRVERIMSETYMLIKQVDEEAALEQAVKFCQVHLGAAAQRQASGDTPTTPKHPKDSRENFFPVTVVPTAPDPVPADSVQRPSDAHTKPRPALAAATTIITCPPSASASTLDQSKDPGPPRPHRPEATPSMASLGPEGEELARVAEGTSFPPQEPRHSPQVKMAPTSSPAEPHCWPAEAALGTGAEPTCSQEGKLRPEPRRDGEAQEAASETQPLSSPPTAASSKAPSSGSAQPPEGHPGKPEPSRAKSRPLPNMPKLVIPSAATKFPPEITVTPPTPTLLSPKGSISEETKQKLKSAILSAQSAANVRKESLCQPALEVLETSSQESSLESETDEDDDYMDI
UniProt P02748: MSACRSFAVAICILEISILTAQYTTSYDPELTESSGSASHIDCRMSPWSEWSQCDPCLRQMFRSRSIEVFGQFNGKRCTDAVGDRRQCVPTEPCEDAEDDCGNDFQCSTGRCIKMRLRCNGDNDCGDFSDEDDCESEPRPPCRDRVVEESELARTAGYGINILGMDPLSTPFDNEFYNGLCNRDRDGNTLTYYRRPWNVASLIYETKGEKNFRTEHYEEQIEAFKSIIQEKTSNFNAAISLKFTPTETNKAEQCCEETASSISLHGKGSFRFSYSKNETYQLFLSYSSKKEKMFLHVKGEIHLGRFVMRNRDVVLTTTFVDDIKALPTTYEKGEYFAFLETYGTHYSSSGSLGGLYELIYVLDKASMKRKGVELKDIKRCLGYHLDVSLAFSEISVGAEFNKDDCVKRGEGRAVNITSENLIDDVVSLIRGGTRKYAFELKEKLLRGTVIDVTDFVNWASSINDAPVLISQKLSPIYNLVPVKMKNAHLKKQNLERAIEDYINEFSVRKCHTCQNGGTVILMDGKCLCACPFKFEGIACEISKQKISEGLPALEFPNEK
UniProt Q05682: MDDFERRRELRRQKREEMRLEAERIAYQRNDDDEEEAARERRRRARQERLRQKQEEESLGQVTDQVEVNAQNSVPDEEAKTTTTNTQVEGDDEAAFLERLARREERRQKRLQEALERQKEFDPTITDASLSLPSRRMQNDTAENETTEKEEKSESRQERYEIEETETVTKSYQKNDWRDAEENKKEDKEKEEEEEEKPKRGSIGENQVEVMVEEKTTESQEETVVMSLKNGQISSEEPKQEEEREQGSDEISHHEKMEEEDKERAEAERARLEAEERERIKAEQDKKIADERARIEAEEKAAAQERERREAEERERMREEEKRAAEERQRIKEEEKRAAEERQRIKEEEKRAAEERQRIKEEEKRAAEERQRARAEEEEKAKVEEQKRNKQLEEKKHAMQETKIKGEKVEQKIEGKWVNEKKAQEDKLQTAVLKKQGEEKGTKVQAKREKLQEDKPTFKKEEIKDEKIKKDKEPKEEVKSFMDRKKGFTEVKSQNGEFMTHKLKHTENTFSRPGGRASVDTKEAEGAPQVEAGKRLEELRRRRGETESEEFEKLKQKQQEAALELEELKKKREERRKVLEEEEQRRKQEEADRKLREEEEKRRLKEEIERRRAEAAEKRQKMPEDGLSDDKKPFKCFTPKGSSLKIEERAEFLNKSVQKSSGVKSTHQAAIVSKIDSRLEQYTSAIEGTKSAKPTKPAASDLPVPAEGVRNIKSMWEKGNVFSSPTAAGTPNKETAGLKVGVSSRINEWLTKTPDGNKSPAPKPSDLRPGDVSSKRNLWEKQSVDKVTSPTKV
UniProt Q9BRJ6: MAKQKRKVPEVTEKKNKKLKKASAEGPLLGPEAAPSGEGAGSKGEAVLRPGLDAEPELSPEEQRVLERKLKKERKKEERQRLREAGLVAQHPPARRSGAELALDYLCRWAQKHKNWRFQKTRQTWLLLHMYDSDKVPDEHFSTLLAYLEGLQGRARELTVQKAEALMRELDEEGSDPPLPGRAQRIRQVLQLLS
UniProt Q9HB07: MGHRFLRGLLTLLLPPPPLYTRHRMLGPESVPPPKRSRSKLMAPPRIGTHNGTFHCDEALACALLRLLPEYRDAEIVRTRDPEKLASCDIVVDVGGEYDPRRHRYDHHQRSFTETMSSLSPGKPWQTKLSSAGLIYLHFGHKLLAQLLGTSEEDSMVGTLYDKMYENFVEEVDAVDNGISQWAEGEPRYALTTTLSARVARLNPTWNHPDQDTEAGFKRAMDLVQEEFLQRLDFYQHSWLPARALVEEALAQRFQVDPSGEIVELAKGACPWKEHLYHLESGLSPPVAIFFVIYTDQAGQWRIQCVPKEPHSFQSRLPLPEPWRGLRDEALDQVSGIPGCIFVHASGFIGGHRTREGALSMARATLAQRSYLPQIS
UniProt P27482, whole entry, looked up: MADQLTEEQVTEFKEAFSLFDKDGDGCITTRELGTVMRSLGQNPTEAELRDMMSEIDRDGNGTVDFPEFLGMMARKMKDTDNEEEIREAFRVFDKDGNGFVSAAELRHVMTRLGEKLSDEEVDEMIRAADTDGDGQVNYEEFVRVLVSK
UniProt Q96NL8: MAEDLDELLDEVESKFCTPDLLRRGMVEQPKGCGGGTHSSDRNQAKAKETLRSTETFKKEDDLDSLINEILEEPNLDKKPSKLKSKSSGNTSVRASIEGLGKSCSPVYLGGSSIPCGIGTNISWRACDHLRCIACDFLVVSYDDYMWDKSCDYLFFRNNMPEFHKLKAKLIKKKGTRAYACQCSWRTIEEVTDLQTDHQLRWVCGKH

Assays:
Assay in all cases: log2 fold change, soluble protein after heating vs DMSO (PISA); higher = thermal stabilisation; K562 cells, 10 uM, 30 min; active = over 0.2 and 3.5 SD of the protein, either way, in both replicates (recomputed)
[1] = compound: Cc1ccc(NC(=O)c2ccc(CN3CC[C@H](N(C)C)C3)c(C(F)(F)F)c2)cc1Nc1nccc(-c2cncnc2)n1 [bafetinib]
Outline: (§1)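 Thermal stability values are relative to control samples and come from duplicates. They are expressed as log2 fold changes. For measurement, K562 cells (2×10^6 cells/mL) received 10 μM compound for 30 min, and aliquots were heated for 3 min over 48°C-58°C, pooled, and extracted at 4°C in PBS with 0.5% NP-40. Soluble protein, the supernatant after 21,000xg for 90 min, was quantified by TMTpro 16plex LC-MS/MS with equalised channel sums.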

[2] = compound: Cn1cncc1[C@@](N)(c1ccc(Cl)cc1)c1ccc2c(c1)c(-c1cccc(Cl)c1)cc(=O)n2C [tipifarnib]
Outline: as §1

[3] = compound: O=C1NC(=O)C(c2cnc3ccccn23)=C1c1cn2c3c(cc(F)cc13)CN(C(=O)N1CCCCC1)CC2
Outline: as §1

[4] = compound: Cc1cccc(CC(=O)N2CCc3c2ccc(-c2cn(C)c4ncnc(N)c24)c3F)n1
Outline: as §1

[5] = compound: Cc1nc(Nc2ncc(C(=O)Nc3c(C)cccc3Cl)s2)cc(N2CCN(CCO)CC2)n1 [dasatinib]
Outline: as §1

[6] = compound: Cn1cc(-c2ccc3c(c2)CCN3C(=O)Cc2cccc(C(F)(F)F)c2)c2c(N)ncnc21
Outline: as §1

[7] = compound: Cn1cc(-c2ccc3nnc(C(F)(F)c4ccc5ncccc5c4)n3n2)cn1
Outline: as §1

[8] = compound: NC(=O)Nc1cc(-c2cccc(F)c2)sc1C(=O)N[C@H]1CCCNC1
Outline: as §1

[9] = compound: NC(=O)c1cnc(N[C@@H]2CCCC[C@@H]2N)nc1Nc1cccc(-n2nccn2)c1
Outline: as §1

[10] = compound: NCC(=O)Nc1ccc(-n2nc(C(F)(F)F)cc2-c2ccc3c(ccc4ccccc43)c2)cc1
Outline: as §1

[11] = compound: Nc1ccccc1NC(=O)c1ccc(CNC(=O)OCc2cccnc2)cc1 [entinostat]
Outline: as §1

[12] = compound: O=C(CCCCCCC(=O)Nc1ccccc1)NO [vorinostat]
Outline: as §1

[13] = compound: O=C(CCCCCCNC(=O)c1cnc(N(c2ccccc2)c2ccccc2Cl)nc1)NO [citarinostat]
Outline: as §1

[14] = compound: c1cc(OCCN2CCCCC2)cc(-c2n[nH]c3ccc(-c4nnc[nH]4)cc23)c1
Outline: as §1

[15] = compound: Cc1cn(-c2cc(NC(=O)c3ccc(C)c(Nc4nccc(-c5cccnc5)n4)c3)cc(C(F)(F)F)c2)cn1 [nilotinib]
Outline: as §1

[16] = compound: Cc1nc(Nc2n[nH]c3c2CN(C(=O)N[C@H](CN(C)C)c2ccccc2)C3(C)C)c2sccc2n1
Outline: as §1

[17] = compound: Cc1ncc(-c2ccnc(Nc3ccc(S(C)(=O)=O)cc3)n2)n1C(C)C
Outline: as §1

[18] = compound: FC(F)(F)c1ccc(/C=C/c2nc(COc3ccc(CCCCn4ccnn4)cc3)co2)cc1 [mubritinib]
Outline: as §1

[19] = compound: NC1(c2ccc(-c3nc4ccn5c(=O)[nH]nc5c4cc3-c3ccccc3)cc2)CCC1
Outline: as §1

[20] = compound: O=C(O)c1ccc2c(c1)nc(Nc1cccc(Cl)c1)c1ccncc12 [silmitasertib]
Outline: as §1

Measured: log2 fold change

C12orf60 (UniProt Q5U649)
inactive: [1] -0.165 | [2] -0.14 | [3] -0.106

C19orf54 (UniProt Q5BKX5)
inactive: [4] 0.007 | [5] -0.175 | [6] 0.03 | [7] 0.14 | [2] 0.013 | [8] 0.098 | [9] 0.004 | [10] 0.086 | [11] -0.111 | [12] -0.064 | [13] -0.09 | [3] -0.05 | [14] -0.121

C1orf112 (UniProt Q9NSG2)
inactive: [4] -0.035 | [5] -0.081 | [2] 0.169 | [8] 0.004 | [9] 0.009 | [10] 0.001 | [11] -0.008 | [12] 0.039 | [13] 0.021 | [14] -0.065

C12orf65 (UniProt Q9H3J6)
inactive: [1] 0.055 | [15] -0.08 | [16] 0.057 | [5] 0.008 | [17] -0.049 | [6] -0.128 | [7] -0.116 | [18] -0.051 | [8] 0.081 | [9] 0.095 | [19] 0.181 | [10] -0.059 | [11] -0.155 | [13] -0.019 | [20] 0.047 | [14] -0.175

CAPN15 (UniProt O75808)
inactive: [1] -0.007 | [4] -0.136 | [2] 0.015 | [8] -0.065 | [11] 0.052 | [12] 0.064 | [3] -0.142

CAPN1 (UniProt E9PLX0)
inactive: [1] -0.059 | [8] -0.074 | [11] 0.103 | [13] 0.032 | [14] -0.21

C11orf74 (UniProt Q86VG3)
inactive: [4] -0.251 | [15] 0.24 | [16] 0.037 | [17] -0.229 | [18] 0.033 | [8] 0.003 | [19] 0.015 | [10] -0.001 | [11] 0.011 | [12] -0.081 | [13] 0.121 | [20] 0.025 | [3] -0.085 | [14] -0.287

C16orf87 (UniProt Q6PH81)
inactive: [1] -0.082 | [15] -0.008 | [16] -0.043 | [17] -0.011 | [18] 0.158 | [8] -0.194 | [19] -0.587 | [10] -0.018 | [11] -0.025 | [13] -0.05 | [20] -0.04 | [3] 0 | [14] 0.05

BTD isoform 3 (UniProt P43251)
inactive: [1] -0.032 | [15] -0.014 | [16] -0.003 | [5] -0.003 | [17] -0.007 | [6] 0.013 | [7] -0.013 | [2] -0.027 | [18] 0.01 | [8] 0.021 | [19] -0.064 | [10] -0.059 | [11] -0.054 | [13] -0.052 | [20] 0.015 | [3] 0.105 | [14] 0.028

C3AR1 (UniProt Q16581)
inactive: [1] 0.107 | [15] 0.099 | [16] 0.202 | [17] -0.212

C6orf136 isoform 4 (UniProt Q5SQH8)
inactive: [1] -0.275 | [15] -0.333 | [16] 0.018 | [5] -0.149 | [17] -0.011 | [7] 0.101 | [18] 0.42 | [8] -0.08 | [9] 0.035 | [19] 0.01 | [11] 0.072 | [13] 0.119 | [20] -0.444 | [14] -0.137

C2orf76 (UniProt Q3KRA6)
inactive: [1] -0.004 | [5] -0.136 | [18] -0.079 | [8] 0.023 | [9] -0.172 | [19] 0.06 | [10] 0.087 | [11] -0.027 | [13] 0.267 | [20] 0.112 | [14] -0.043

CA2 (UniProt P00918)
inactive: [1] -0.192 | [16] 0.014 | [5] 0.2 | [17] 0.11 | [2] -0.026 | [18] 0.045 | [9] 0.161 | [19] -0.023 | [10] -0.139 | [13] -0.287 | [20] -0.108 | [14] 0.085

CAB39L (UniProt Q9H9S4)
inactive: [1] -0.055 | [4] -0.041 | [5] -0.255 | [7] -0.032 | [2] 0.042 | [8] 0.035 | [9] 0.083 | [10] -0.162 | [11] -0.016 | [12] -0.197 | [13] -0.093 | [3] -0.043 | [14] -0.101

C3orf38 (UniProt Q5JPI3)
inactive: [1] -0.031 | [15] -0.104 | [16] -0.023 | [5] -0.2 | [17] 0.064 | [6] -0.039 | [7] 0.026 | [2] 0.044 | [18] -0.218 | [8] -0.049 | [9] -0.267 | [19] -0.082 | [10] -0.256 | [11] 0.049 | [13] -0.164 | [20] 0.347 | [3] 0.018 | [14] -0.202

CABIN1 (UniProt Q9Y6J0)
inactive: [18] 0.046 | [19] -0.106 | [20] 0.604

C5orf30 (UniProt Q96GV9)
inactive: [2] 0.152 | [9] -0.191 | [3] -0.051

CAMKK1 isoform 2 (UniProt Q8N5S9)
inactive: [4] -0.237 | [2] 0.043 | [12] 0.188

C5orf34 (UniProt Q96MH7)
inactive: [18] -0.057 | [19] 0.076 | [20] 0.146

CAPNS1 (UniProt U3KPR7)
inactive: [9] -0.163

C9 (UniProt P02748)
inactive: [5] -0.054 | [6] 0.026 | [7] 0.044 | [18] -0.18 | [19] 0.276 | [20] 0.18 | [3] 0.149

CALD1 (UniProt Q05682)
inactive: [4] -0.082 | [6] 0.24 | [7] 0.191 | [2] -0.139 | [8] 0.11 | [11] -0.01 | [12] 0.185 | [3] -0.085

CARD11 (UniProt Q9BXL7)
inactive: [5] -0.049 | [6] -0.012 | [2] -0.001 | [8] -0.176 | [9] -0.105 | [11] 0.048 | [3] 0.053

C12orf49 (UniProt Q9H741)
inactive: [4] 0.118 | [12] 0.137

C17orf99 (UniProt Q6UX52)
inactive: [4] -0.124 | [18] -0.306 | [9] -0.041 | [19] -0.018 | [12] -0.062 | [20] 0 | [3] -0.085

CA3 (UniProt P07451)
inactive: [7] 0.085 | [8] 0.192 | [11] -0.2 | [3] 0.184

CAD (UniProt H7BZB3)
inactive: [9] 0.124

CARD9 (UniProt Q9H257)
inactive: [7] 0.085 | [9] 0.37

C16orf70 (UniProt Q9BSU1)
inactive: [2] -0.028 | [8] 0.237 | [9] -0.106 | [11] 0.064 | [13] 0.001 | [3] 0.224 | [14] -0.024

C7orf50 (UniProt Q9BRJ6)
inactive: [5] 0.207 | [6] -0.158 | [7] -0.128 | [9] 0.082 | [10] 0.01

C1orf43 (UniProt Q9BWL3)
inactive: [8] 0.031 | [11] 0.031

C6orf62 (UniProt Q9GZU0)
inactive: [4] -0.095 | [12] -0.107 | [3] -0.111

CAPNS2 (UniProt Q96L46)
inactive: [7] 0 | [18] -0.488 | [19] 0.035 | [13] -0.26 | [20] 0.524 | [14] 0.556

CALM1 (UniProt G3V361)
inactive: [5] -0.049 | [8] 0.351 | [11] -0.02

BSN (UniProt Q9UPA5)
inactive: [6] 0.004 | [9] 0.018 | [10] 0.067

C11orf96 (UniProt Q7Z7L8)
inactive: [4] 0.028 | [6] -0.141 | [7] 0.03 | [2] 0.083 | [10] 0.219 | [12] -0.009 | [3] -0.204

C5 (UniProt P01031)
inactive: [4] -0.277 | [6] 0.291 | [8] -0.007 | [10] 0.08 | [11] 0.023 | [12] -0.178 | [3] 0.022

CARD6 (UniProt Q9BX69)
inactive: [7] -0.486 | [13] -0.027 | [14] -0.121

CAMK2A isoform 2 (UniProt Q9UQM7)
inactive: [5] -0.192

C9orf85 isoform 1 (UniProt Q96MD7)
inactive: [15] -0.063 | [16] -0.083 | [5] -0.033 | [17] 0.126 | [6] 0.05 | [2] -0.036 | [18] -0.088 | [8] 0.029 | [9] -0.049 | [19] 0.081 | [10] 0.029 | [11] -0.03 | [20] 0.005 | [3] 0.157

C3orf86 (UniProt P0DN24)
inactive: [15] -0.037 | [16] -0.446 | [17] 0.587 | [18] -0.081 | [19] 0.152 | [20] -0.139

C12orf10 (UniProt Q9HB07)
inactive: [4] -0.031 | [12] 0

CABLES2 (UniProt Q9BTV7)
inactive: [18] 0.113 | [19] -0.081 | [20] -0.226

CALML3 (UniProt P27482)
inactive: [5] -0.282 | [2] 0.213 | [18] 0.173 | [9] 0.475 | [19] 0.11 | [13] -0.057 | [20] 0 | [3] 0.015 | [14] 0.113

C4orf46 (UniProt Q504U0)
inactive: [15] -0.006 | [16] 0.238 | [17] 0.027

C8orf37 (UniProt Q96NL8)
inactive: [3] 0.002

BTBD1 (UniProt Q9H0C5)
inactive: [7] 0.22

C8B (UniProt P07358)
inactive: [5] -0.048

Reprinted from above (four entries):
C12orf60 (UniProt Q5U649)
inactive: [1] -0.165 | [2] -0.14 | [3] -0.106

C19orf54 (UniProt Q5BKX5)
inactive: [4] 0.007 | [5] -0.175 | [6] 0.03 | [7] 0.14 | [2] 0.013 | [8] 0.098 | [9] 0.004 | [10] 0.086 | [11] -0.111 | [12] -0.064 | [13] -0.09 | [3] -0.05 | [14] -0.121

C1orf112 (UniProt Q9NSG2)
inactive: [4] -0.035 | [5] -0.081 | [2] 0.169 | [8] 0.004 | [9] 0.009 | [10] 0.001 | [11] -0.008 | [12] 0.039 | [13] 0.021 | [14] -0.065

C12orf65 (UniProt Q9H3J6)
inactive: [1] 0.055 | [15] -0.08 | [16] 0.057 | [5] 0.008 | [17] -0.049 | [6] -0.128 | [7] -0.116 | [18] -0.051 | [8] 0.081 | [9] 0.095 | [19] 0.181 | [10] -0.059 | [11] -0.155 | [13] -0.019 | [20] 0.047 | [14] -0.175

The list goes on.

C18orf21 (UniProt Q32NC0)
inactive: [18] -0.201 | [19] 0.17 | [20] 0.228
